The exact form of at least one protein or probe is not confirmed. For some assays here: Where cells or extracts were used, other partners may take part. For some assays here: At least one verdict rests on a figure or table, not on a statement of the authors.
Key:
KLF4 (recombinant) = assay: EMSA; details: recombinant protein, data not shown, EMSA as previously described (ref 61), pH and temperature not stated
SP1 = SP1 (UniProt O89090); assay: EMSA supershift; details: EMSA as previously described (ref 61), pH and temperature not stated, protein in an extract
SP3 = SP3 (UniProt O70494); assay: EMSA supershift; details: ES cell nuclear extract; EMSA as previously described (ref 61); pH and temperature not stated; protein in an extract
KLF2 = KLF2 (UniProt Q60843); assay: EMSA with antibody inhibition; details: ES cell nuclear extract, activity lost in EB extract; EMSA as previously described (ref 61); pH and temperature not stated; protein in an extract

Chains of the proteins cited; added tags and fusions are not shown. Lines headed by an entry give the natural chain unless they say otherwise; changes in a name come on top.
UniProt O89090, whole entry: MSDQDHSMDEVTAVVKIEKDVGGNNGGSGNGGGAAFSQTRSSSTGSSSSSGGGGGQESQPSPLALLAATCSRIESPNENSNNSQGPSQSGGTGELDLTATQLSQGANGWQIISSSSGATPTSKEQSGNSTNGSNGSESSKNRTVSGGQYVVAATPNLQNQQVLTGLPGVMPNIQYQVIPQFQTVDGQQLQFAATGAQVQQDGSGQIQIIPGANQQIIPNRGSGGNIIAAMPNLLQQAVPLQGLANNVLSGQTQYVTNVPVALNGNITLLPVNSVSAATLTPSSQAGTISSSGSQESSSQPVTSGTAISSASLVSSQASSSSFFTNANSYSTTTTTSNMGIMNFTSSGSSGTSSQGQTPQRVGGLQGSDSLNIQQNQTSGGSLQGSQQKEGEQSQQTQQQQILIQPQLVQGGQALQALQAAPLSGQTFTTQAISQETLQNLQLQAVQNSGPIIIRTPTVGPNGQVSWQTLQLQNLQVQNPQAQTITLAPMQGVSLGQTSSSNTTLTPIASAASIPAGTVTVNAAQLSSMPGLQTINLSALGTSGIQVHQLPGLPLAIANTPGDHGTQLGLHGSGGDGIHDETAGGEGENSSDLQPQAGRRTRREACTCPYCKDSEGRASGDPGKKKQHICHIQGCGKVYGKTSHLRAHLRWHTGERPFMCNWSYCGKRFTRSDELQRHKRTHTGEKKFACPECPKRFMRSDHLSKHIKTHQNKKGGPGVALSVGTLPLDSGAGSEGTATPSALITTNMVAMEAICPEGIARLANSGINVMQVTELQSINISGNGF
UniProt O70494: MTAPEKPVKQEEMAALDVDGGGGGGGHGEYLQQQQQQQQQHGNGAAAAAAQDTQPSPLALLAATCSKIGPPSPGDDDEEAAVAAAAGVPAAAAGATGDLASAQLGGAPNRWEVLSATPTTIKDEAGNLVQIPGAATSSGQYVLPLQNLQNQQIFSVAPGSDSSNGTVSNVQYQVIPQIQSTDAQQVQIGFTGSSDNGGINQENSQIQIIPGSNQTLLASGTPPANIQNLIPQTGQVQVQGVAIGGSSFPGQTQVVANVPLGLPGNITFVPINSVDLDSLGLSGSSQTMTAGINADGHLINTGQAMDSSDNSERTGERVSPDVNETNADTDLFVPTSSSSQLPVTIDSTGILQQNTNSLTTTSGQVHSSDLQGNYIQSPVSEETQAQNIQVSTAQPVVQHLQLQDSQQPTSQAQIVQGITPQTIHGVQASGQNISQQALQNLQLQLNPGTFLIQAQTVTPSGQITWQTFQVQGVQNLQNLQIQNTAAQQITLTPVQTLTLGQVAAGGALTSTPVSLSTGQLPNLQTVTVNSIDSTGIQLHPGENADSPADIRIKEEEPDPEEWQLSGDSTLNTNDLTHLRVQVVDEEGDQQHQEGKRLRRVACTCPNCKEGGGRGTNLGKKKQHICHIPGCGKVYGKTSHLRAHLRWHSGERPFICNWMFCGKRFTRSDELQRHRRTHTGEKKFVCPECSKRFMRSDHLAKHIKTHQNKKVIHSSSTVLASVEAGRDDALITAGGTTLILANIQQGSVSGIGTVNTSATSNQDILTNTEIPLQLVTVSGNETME
UniProt Q60843: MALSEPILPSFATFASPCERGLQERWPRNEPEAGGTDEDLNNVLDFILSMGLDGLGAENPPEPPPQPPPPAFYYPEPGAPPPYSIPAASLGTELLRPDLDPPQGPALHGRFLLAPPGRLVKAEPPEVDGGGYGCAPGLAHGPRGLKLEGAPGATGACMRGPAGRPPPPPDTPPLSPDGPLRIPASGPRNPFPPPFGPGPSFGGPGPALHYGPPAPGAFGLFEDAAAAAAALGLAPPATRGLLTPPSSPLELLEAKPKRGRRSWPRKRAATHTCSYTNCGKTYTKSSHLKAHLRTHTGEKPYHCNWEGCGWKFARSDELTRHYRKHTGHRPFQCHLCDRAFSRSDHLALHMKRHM

Measured: binding result

GTTGGGCGGGGCGTGGGCGGGGCC (double strand) [p18INK4c promoter extended CACC site]
binds: KLF4 (recombinant) | SP1; ES cell nuclear extract | SP1; day 4 EB (serum) nuclear extract | SP3 | KLF2
